# Percent effect of library compounds

By UniProt entry, the sequences of proteins in these tests, tags left out. Residues count along the entry.
UniProt Q4DA54, 1-478: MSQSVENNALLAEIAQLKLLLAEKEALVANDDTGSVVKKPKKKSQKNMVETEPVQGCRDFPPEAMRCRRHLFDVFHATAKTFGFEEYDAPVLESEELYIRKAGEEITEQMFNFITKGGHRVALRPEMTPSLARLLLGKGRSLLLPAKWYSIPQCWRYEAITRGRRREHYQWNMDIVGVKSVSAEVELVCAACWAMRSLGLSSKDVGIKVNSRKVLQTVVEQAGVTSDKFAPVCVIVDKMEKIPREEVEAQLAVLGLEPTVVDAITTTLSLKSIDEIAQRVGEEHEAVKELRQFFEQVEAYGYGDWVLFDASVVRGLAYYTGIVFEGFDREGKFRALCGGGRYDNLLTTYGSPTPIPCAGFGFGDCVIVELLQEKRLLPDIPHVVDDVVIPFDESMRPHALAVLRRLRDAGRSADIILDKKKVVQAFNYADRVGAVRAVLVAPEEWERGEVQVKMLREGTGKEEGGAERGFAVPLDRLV
UniProt P9WNZ1, whole entry: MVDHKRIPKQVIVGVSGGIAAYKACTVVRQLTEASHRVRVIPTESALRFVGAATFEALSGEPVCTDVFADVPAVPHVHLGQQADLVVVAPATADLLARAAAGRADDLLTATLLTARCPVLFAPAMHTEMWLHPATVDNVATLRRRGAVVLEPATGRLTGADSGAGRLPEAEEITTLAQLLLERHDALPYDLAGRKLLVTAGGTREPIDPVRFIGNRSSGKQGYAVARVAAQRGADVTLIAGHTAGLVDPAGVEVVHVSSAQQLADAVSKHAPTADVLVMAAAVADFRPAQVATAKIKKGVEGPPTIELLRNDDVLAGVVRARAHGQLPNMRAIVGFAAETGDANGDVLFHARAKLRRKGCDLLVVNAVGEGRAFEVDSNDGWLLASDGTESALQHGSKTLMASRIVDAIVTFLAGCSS

Source: ChEMBL document CHEMBL3988442, “University of Dundee, Small-Polar-MMV Screening Library” (2021).

Each number is a percent effect as filed. How 0% and 100% were set is not recorded. Most values in the screen are low, and negative values occur. The compounds are a random part of those screened.

TcHisRS: 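Histidine-tRNA ligase, Trypanosoma cruzi CL Brener (UniProt Q4DA54). Enzyme assay of histidyl-tRNA synthetase; the read-out is not stated. Compounds at 30 µM. Higher reads as stronger inhibition (inferred: compounds with an IC50 in retests scored well above the rest). Of about 69,000 compounds tested this way, about 31 (0.045%) reached 50% or more in at least one test.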
CoaBC: 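Coenzyme A biosynthesis protein CoaBC, Mycobacterium tuberculosis (UniProt P9WNZ1). Enzyme assay of CoaBC with a phosphate dye (Biomol Green) read at 650 nm. Tested at 30 µM. Direction is inferred from only a few compounds that gave an IC50; most scored high, so higher reads as stronger inhibition. Most strong results did not repeat in a second test. About 67,000 compounds were tested under these conditions; 0.06% (about 40) showed 50% or more at least once.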

structure | TcHisRS | CoaBC
Cc1ccc(S(=O)(=O)Nc2cccnc2O)cc1C | 4.082 | 2.788
CN(Cc1cccc(C#N)c1)S(=O)(=O)N1CCOCC1 | 5 | 3.579
CC(C)Oc1ncccc1CNC(=O)c1cnccn1 | 3.779 | -2.678
CCn1nnnc1-c1cccc(NCc2nc(C)ccc2O)c1 | 11.6 | 3.398
CC(C)n1cc(CN(C)C[C@@H]2CCCN3CCCC[C@H]23)cn1 | 4.242 | 1.46
Cc1ccc(N(CCC#N)C(=O)CCc2cccnc2)cc1C | 4.95 | 5.583
CN(C)C(C(=O)NCC1(C)COC1)c1cccc(F)c1 (stereo not given) | 2.717 | 0.4132
COc1ccc(-n2nnc(C(=O)NC(C)C)c2C2CC2)cc1 | 0.813 | 10.13
c1ccc(CN2CCN(Cc3cnc(C4CCCCO4)nc3)CC2)cc1 (stereo not given) | 16.17 | 13.29
CCCC(NC(=O)c1cscc1C)c1nnn[nH]1 (stereo not given) | 8.333 | 5.372
CNc1nc(CNC(=O)Nc2cccc(CC(F)(F)F)c2)cs1 | 6.706 | 7.597
Cc1nn(C)c(Oc2ccccc2)c1CNC1CCCCNC1=O (stereo not given) | 9.392 | -0.8929
CC(CNC(=O)c1ccc(F)cc1I)N1CCCC1 (stereo not given) | -7.179 | 5.511
CC(C)(C)c1ccc(CN2C[C@H]3C[C@H](O)C[C@H]3C2)c(OCC(N)=O)c1 | 8.333 | 1.051
CC(C)NC(=O)NCc1ccccc1NS(=O)(=O)c1ccccc1 | -3.191 | 19.74
Cc1ccn(Cc2nc(C(C)OCC(C)C)no2)c(=O)c1 (stereo not given) | -5.419 | 4.516
COc1c(C)cnc(CN2CCC(N(C)C(=O)C(C)OC)CC2)c1C (stereo not given) | 3.429 | 0
COc1cccc(CC(=O)N2CCCC2c2nc(C)c(C)c(O)n2)c1 (stereo not given) | 3.731 | 1.703
O=C1Nc2ccccc2CC12CCCN2Cc1ccc(F)cc1 (stereo not given) | 2.959 | 1.842
CN1CCC(N(CCc2ccccc2)C(=O)c2cc[nH]c2)CC1 | 2.97 | -3.753
CC(C)N(Cc1ccc(C#N)cc1)C(=O)Nc1ccccn1 | 10.92 | -12.9
Cc1c(F)cc(C(=O)O)cc1S(=O)(=O)Nc1ccc2c(c1)OCCO2 | -0.7634 | 2.85
c1sc(C2CCCCC2)nc1CN1CCn2c(nnc2C2CC2)C1 | 3.468 | 9.068
NS(=O)(=O)CCN1CCOC(c2ccsc2)C1 (stereo not given) | 5.882 | -2.439
Cc1ncccc1CNCC1CCCN1c1cccnn1 (stereo not given) | 7.123 | -6.434
CCCN(CC(F)F)c1cc(COC)nc2ncnn12 | 5.82 | 12.63
CN1CCN(c2cc(CNC(=O)Cn3cccn3)ccn2)CC1 | 2.959 | 8.238
O=C1CCCCCN1Cc1nc(C2(c3ccc(F)cc3)CCOC2)no1 (stereo not given) | 1.786 | 5.157
COCCN1CC[C@H]2CN(Cc3ccc(C)s3)C[C@@H]2C1=O | 4.854 | 2.96
COc1ccc(CN2C[C@@H]3CN(Cc4ccoc4)C[C@@H]3C2=O)cc1 | 6.796 | 1.527
Fc1ccc(CN2CCCn3cnc(COCC4CC4)c3C2)cc1 | 10.45 | -3.871
COc1ccc(CN2C[C@@H](CN(C)C)[C@@H](CO)C2)c(Cl)c1OC | 7.143 | -0.3745
CCC(O)Cn1cc(C2=CCN(Cc3cc(O)nc(C)n3)CC2)cn1 (stereo not given) | 3.279 | 2.2
CNC(=O)CN1CCC(CN(C)Cc2ccccc2N(C)C)CC1 | 8 | -4.793
O=C(c1ccccn1)N1CCC(Oc2cccnc2)CC1 | 7.778 | 6.723
Cc1cccc(CN2C[C@H]3CCC[C@@]3(COCc3csc(C)n3)C2)n1 | 3.448 | 3.055
Cc1nnc(N2CCNCC2)c(C(N)=O)c1C | 3.922 | -1.951
Fc1cccc(CNCC2OCCc3cn(CC4CCOCC4)nc32)c1 (stereo not given) | 6.897 | 5.584
CCOCC1CN(C(=O)c2cccs2)Cc2nn(C)cc21 (stereo not given) | -4.902 | 6.84
Cc1ccc(C(=O)NCC(O)c2cccc(F)c2)c(=O)[nH]1 (stereo not given) | 2.89 | 1.956
Cn1cc(CN2C[C@H]3CCC[C@@H](CNc4ncccn4)[C@H]3C2)cn1 | 5 | -2.24
CCCc1nc(NCCCOC)c2c(n1)c(C)nn2CC | -0.8696 | 5.774